Data from patent publication US11077092B2, “Methods of treating diabetes by administering a glucagon receptor antagonist in combination with a cholesterol absorption inhibitor” (Merck Sharp & Dohme Corp., priority 2012, dated 2021).

Columns and labels:
[1] = test system: hGCGR mice; experiment: Sub-chronic treatment of hGCGR mice with GRA (Example 1): plasma total cholesterol, phytosterols, lathosterol, cholesterol synthesis; type: in vivo; conditions: 30 mpk QD for 5 days, vs vehicle; for cholesterol synthesis: D2O tracer
Protocol: Male hGCGR mice (Transgenic Research, 8:295-302, 1999) at ˜12 wks of age maintained on chow diet were treated with vehicle and GRA Compounds A, B, and C at 30 mpk QD for 5 days (n=8). On Day 1, mice were administered the compounds followed by glucagon-induced glucose tolerance test. On Day 5, mice were fasted at 7:30 am. After dosing at ˜9:00 am, the blood glucose was measured at 2-h post dose with a glucometer; see FIG. 1. At 6-h post dose, the tail blood was collected for PK measurement. Mice were euthanized with CO2, and blood was collected by cardiac puncture. The liver was snap frozen in liquid nitrogen with a freezing clamp and saved in −80° C. Plasma was isolated by centrifuging the blood at 8000 rpm for 5 min. The plasma level of total cholesterol was measured by biochemical assay (Wako Chemicals Inc.). The plasma level of lathosterol and phytosterol was measured by LC/MS. To determine cholesterol synthesis. D2O was administered i.p. at 20 ml/kg on 24 h prior to takedown of the mice. The level of D2 in plasma water and plasma cholesterol was assayed by GC/MS for cholesterol synthesis. Asterisks denote statistical significance between treatment and vehicle groups.

[2] = test system: hGCGR mice; experiment: Dual tracer study for cholesterol absorption in hGCGR mice (Example 4); type: in vivo; conditions: 30 mpk QD for 9 days
Protocol: Male hGCGR mice at ˜12 wks of age maintained on chow or high cholesterol diet (n=8 group) were treated with vehicle and GRA Compound A@30 mpk QD for 9 days. Twenty four-hour feces before treatment and 3 days after treated were collected for fecal cholesterol characterization. On Day 4, mice were dosed with vehicle (0.5% MC, BID) or Compound A followed by administration with D6-cholesterol@15 mpk through p.o. and 13C-cholesterol@15 mpk through i.v. Blood was collected at 4, 24, 48, 72, and 96 h post injection by tail bleeding. For cholesterol synthesis, D2O was administered i.p. at 20 ml/kg on Day 7. On day 8, tail blood was collected for PK and mice were taken down for blood and liver collection. Plasma was isolated from blood by centrifuge at 8000 rpm for 5 min and submitted for GC/MS assay for cholesterol synthesis and absorption. Feces were sent to Taconic for fecal cholesterol assay. Asterisks denote statistical significance between treatment and vehicle groups. * p<0.05, **p<0.01, and ***p<0.001 by ANOVA.

Row | Structure (SMILES) | cholesterol synthesis [1] | plasma level of campesterol [1] | plasma level of lathosterol [1] | plasma level of sitosterol [1] | cholesterol synthesis ([2]; D2O) | cholesterol absorption ([2]; dual tracer)
1 | COc1ccc2cc(-c3cc(-c4cc(C(F)(F)F)ccc4F)nn3[C@@H](C)c3ccc(C(=O)NCCC(=O)O)cc3)ccc2c1 [Compound A] | no significant effect | significantly induced | no significant effect | significantly induced | No change | significantly increased
2 | Cc1cc(OC(CCC(F)(F)F)c2ccc(C(=O)NCCC(=O)O)cc2)cc(C)c1-c1ccc(C(C)(C)C)cc1 (centres unmarked) [Compound B, 3-{4-[1-(4′-tert-butyl-2,6-dimethyl-biphenyl-4-yloxy)-4,4,4-trifluoro-butyl]-benzoylamino}-propionic acid] | trends of increase | significantly induced | trends of increase | significantly induced | – | –
3 | Cc1cc(OC(CCC(C)(C)C)c2ccc(C(=O)NCCC(=O)O)cc2)cc(C)c1-c1ccc(C(F)(F)F)cc1 (centres unmarked) [Compound C, 3-{4-[1-(2,6-Dimethyl-4′-trifluoromethyl-biphenyl-4-yloxy)-4,4-dimethyl-pentyl]-benzoylamino}-propionic acid] | trends of increase | significantly induced | trends of increase | significantly induced | – | –
